The supplement of paper PMC10849652
Some of the results follow.

Chains of the proteins cited; added tags and fusions are not shown. Lines headed by an entry give the natural chain unless they say otherwise; changes in a name come on top.
UniProt Q96RI0: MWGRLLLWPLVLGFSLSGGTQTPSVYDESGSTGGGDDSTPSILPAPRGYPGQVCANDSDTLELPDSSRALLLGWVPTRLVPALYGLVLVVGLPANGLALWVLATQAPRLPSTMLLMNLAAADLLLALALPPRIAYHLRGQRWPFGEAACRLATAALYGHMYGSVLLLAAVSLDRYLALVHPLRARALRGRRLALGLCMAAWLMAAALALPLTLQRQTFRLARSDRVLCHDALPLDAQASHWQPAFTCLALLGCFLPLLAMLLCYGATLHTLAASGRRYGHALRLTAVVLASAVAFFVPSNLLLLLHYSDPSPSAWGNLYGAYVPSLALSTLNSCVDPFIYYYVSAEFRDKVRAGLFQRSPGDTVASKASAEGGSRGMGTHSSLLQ
UniProt P07992: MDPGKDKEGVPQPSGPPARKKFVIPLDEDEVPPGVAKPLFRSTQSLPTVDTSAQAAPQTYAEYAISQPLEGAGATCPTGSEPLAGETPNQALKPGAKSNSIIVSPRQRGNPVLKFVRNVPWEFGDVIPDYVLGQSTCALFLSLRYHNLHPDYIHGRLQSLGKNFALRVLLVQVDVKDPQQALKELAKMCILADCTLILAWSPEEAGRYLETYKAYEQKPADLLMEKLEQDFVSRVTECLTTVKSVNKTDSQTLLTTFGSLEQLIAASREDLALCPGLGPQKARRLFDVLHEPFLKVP
UniProt P00488: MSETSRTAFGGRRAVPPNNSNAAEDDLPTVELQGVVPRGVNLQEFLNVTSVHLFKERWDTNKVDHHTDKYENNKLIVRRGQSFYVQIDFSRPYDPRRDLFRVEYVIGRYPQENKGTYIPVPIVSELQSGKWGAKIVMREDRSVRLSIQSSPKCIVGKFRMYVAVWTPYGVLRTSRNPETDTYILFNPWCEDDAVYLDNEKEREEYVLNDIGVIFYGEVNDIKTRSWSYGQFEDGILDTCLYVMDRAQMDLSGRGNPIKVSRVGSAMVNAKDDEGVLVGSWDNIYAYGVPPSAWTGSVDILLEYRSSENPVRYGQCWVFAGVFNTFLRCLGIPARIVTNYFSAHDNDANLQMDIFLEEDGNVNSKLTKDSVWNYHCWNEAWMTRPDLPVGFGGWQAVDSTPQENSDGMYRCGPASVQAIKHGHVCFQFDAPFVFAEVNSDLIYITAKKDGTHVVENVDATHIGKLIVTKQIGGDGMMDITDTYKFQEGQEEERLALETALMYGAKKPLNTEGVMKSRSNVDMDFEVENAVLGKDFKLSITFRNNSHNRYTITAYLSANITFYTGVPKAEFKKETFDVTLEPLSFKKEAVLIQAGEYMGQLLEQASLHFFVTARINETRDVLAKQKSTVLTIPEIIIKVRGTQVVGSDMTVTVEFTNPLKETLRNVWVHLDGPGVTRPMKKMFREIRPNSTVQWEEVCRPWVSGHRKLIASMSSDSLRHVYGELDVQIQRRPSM
UniProt Q5VUB5: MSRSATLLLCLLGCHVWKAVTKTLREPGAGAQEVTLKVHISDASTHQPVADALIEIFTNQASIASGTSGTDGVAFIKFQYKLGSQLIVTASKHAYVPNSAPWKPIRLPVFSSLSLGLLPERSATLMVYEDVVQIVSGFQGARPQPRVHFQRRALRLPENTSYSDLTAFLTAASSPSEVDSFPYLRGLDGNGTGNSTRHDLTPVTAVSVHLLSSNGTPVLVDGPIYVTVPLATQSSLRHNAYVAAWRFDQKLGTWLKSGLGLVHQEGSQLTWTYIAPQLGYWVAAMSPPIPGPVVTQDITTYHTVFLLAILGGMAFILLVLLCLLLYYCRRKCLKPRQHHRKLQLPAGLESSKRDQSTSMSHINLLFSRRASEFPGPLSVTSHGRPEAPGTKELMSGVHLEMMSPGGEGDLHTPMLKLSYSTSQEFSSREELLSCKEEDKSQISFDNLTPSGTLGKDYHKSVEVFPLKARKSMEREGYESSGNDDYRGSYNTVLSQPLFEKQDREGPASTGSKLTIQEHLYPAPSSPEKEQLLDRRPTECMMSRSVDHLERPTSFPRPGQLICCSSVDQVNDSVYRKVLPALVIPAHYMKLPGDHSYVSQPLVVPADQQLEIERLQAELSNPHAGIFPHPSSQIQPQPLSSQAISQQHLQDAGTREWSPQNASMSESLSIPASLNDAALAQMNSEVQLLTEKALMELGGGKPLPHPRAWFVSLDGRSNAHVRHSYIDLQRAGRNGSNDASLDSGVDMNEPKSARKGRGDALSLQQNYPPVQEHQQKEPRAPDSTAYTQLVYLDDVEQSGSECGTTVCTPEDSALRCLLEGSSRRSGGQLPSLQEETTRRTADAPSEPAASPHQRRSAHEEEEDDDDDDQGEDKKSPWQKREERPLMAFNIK
UniProt P05160: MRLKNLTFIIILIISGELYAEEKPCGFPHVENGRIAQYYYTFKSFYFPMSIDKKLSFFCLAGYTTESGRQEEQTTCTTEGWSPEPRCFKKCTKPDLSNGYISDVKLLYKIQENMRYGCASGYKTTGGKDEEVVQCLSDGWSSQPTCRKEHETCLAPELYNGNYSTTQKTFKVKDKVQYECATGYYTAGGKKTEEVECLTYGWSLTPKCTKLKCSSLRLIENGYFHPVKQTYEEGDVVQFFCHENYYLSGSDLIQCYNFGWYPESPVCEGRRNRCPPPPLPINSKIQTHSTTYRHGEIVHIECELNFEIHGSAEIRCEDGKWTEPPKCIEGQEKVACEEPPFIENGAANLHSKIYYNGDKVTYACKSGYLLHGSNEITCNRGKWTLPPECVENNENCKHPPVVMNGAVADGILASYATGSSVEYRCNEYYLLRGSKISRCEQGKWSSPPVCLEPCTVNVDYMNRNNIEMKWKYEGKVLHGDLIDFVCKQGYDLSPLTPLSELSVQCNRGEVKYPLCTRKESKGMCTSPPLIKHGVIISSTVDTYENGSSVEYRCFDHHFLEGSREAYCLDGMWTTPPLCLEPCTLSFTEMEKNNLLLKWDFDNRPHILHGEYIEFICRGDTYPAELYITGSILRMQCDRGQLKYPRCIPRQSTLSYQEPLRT
UniProt Q9H8W3: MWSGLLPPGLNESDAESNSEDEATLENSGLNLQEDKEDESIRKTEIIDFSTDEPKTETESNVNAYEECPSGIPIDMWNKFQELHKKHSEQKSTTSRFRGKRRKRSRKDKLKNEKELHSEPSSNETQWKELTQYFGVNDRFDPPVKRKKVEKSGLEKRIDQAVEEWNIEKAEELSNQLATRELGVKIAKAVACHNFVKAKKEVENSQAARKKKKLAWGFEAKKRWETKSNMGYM
UniProt O95718: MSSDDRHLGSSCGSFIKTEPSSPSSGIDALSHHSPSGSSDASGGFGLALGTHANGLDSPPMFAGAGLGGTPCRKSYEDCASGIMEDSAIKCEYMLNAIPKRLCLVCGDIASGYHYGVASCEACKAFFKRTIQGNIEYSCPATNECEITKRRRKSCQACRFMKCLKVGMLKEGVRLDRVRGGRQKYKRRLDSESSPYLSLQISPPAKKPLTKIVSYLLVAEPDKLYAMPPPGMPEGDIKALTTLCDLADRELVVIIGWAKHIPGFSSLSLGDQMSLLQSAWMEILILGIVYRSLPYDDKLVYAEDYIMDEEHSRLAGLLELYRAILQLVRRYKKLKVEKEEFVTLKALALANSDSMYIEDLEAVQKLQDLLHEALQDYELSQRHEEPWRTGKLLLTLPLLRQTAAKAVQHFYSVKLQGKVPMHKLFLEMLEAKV
UniProt Q8IWE2: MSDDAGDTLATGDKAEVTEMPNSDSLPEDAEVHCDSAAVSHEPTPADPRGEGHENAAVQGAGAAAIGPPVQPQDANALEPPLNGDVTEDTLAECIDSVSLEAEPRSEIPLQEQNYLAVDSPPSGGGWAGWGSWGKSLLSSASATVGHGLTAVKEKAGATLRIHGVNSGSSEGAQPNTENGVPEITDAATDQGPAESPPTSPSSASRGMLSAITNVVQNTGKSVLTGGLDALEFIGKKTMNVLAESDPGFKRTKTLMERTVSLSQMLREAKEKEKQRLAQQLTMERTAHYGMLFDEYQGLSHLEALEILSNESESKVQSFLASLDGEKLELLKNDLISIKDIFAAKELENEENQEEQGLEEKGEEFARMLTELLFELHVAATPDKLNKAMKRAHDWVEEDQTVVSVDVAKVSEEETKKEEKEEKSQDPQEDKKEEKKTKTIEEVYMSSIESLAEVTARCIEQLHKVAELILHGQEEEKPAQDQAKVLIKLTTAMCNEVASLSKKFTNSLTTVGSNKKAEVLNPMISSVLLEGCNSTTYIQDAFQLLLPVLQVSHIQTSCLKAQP
UniProt Q8N0U4: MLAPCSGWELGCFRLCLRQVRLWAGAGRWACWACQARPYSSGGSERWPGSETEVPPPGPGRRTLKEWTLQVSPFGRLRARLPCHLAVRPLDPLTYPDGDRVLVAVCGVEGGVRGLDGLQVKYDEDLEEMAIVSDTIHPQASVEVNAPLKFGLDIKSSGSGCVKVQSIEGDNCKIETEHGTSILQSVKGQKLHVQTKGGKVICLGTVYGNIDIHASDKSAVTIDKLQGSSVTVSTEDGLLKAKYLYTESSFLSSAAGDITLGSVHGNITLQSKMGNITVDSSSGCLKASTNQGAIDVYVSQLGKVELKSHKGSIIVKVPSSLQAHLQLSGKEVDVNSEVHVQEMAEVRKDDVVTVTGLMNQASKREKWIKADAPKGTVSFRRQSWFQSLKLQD
UniProt Q8TE68: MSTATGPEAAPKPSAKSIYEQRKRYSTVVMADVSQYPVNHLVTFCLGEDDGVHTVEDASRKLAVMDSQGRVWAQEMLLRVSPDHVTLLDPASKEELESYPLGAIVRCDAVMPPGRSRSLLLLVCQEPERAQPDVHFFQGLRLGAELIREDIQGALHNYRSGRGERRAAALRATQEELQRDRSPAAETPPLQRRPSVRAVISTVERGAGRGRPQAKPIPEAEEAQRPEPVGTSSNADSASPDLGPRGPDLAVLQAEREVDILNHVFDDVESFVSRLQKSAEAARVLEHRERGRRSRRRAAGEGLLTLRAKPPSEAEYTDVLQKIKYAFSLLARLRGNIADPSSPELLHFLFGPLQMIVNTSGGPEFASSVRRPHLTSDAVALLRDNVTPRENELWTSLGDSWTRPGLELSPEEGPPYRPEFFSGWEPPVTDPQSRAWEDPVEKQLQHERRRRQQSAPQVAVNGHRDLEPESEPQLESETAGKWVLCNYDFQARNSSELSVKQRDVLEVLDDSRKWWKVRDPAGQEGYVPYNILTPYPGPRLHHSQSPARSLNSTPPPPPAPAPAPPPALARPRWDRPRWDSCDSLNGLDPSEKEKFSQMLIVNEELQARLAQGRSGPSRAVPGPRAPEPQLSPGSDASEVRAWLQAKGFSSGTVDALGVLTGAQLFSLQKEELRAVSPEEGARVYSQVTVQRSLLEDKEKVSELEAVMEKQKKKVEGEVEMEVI
UniProt O60447: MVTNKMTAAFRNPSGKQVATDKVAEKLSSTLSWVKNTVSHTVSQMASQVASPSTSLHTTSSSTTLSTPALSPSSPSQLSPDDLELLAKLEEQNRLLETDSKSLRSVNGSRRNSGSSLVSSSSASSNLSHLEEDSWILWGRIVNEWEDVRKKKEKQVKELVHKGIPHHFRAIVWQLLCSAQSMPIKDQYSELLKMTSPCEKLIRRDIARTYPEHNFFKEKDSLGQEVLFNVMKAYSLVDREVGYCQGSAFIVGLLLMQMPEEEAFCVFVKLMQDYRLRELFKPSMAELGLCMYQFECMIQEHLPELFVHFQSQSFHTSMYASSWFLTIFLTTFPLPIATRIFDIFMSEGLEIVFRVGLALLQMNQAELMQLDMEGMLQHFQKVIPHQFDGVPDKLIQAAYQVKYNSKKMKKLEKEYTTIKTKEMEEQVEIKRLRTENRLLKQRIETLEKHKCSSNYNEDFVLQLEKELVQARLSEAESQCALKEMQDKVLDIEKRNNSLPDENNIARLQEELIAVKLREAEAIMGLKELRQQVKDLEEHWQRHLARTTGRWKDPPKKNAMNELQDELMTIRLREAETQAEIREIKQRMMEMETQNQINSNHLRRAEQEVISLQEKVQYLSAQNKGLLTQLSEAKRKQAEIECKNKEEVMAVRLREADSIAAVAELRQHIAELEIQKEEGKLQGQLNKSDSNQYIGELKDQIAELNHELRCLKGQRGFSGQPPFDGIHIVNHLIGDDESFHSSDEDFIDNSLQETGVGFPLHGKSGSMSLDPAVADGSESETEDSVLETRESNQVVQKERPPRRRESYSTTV
UniProt P34910: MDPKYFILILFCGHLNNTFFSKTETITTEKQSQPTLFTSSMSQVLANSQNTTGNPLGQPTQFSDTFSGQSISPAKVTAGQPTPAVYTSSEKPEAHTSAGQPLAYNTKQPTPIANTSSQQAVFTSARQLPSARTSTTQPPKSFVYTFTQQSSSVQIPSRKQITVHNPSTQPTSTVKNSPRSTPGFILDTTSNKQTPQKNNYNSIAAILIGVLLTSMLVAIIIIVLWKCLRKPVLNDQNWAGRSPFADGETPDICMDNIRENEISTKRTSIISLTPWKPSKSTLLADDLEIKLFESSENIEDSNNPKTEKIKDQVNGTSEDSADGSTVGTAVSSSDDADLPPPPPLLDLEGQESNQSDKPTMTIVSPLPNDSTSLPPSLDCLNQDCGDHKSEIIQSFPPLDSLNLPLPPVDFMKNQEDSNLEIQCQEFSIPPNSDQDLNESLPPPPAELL

How the values were obtained:
Test in all cases: log2 fold change, soluble protein after heating vs DMSO (PISA); higher = thermal stabilisation; K562 cells, 10 uM, 30 min; active = over 0.2 and 3.5 SD of the protein, either way, in both replicates (recomputed)
[1] = compound: CC1=C(SC2=C1C(=N[C@H](C3=NN=C(N32)C)CC(=O)N)C4=CC=C(C=C4)Cl)C
In short: (§1)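 Quantification of soluble protein used TMTpro 16plex LC-MS/MS, with channel sums equalised. Samples were the supernatant after 21,000xg for 90 min of pooled aliquots from K562 cells (2×10^6 cells/mL) treated with 10 μM compound for 30 min, heated for 3 min over 48°C-58°C, and extracted in PBS with 0.5% NP-40 at 4°C. Values, from duplicates, describe thermal stability against control samples on a log2 fold-change scale.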

[2] = compound: CC1=C2C(=CC=C1)N=C(N(C2=O)C3=CC=CC=C3C)CN4C=NC5=C(N=CN=C54)N
In short: as §1

[3] = compound: Cc1sc2c(c1C)C(c1ccc(Cl)cc1)=N[C@@H](CC(=O)OC(C)(C)C)c1nnc(C)n1-2
In short: as §1

[4] = compound: c1ccc([C@@H]2C[C@H]2NC2CCNCC2)cc1
In short: as §1

[5] = compound: C1=CC=C(C=C1)[C@H](COC2=CC3=C(C=C2)NC(=O)N3)NC(=O)C4=CC=CN(C4=O)CC5=CC(=C(C=C5)F)F
In short: as §1

F2RL3 (UniProt Q96RI0) was tested, and the log2 fold change [1] was inactive: 0.175, the log2 fold change [2] was inactive: 0.06 and the log2 fold change [3] was inactive: -0.197. For the same target, the log2 fold change [4] was inactive: 0.032.
ERCC1 isoform 3 (UniProt P07992) was tested, and the log2 fold change [1] was inactive: -0.216 and the log2 fold change [4] was inactive: 0.059.
ETF1 isoform 2 (UniProt P62495) was tested, and the log2 fold change [5] was inactive: -0.113 and the log2 fold change [2] was inactive: 0.031.
For FAHD2B (UniProt Q6P2I3), the log2 fold change [5] was inactive: 0.077, the log2 fold change [1] was inactive: -0.001 and the log2 fold change [4] was inactive: 0.051.
In the case of FAM174A (UniProt Q8TBP5), the log2 fold change [2] is reported as inactive: 0.303 and the log2 fold change [3] is reported as inactive: -0.06.
With F13A1 (UniProt P00488) the log2 fold change [5] was inactive: 0.033 and the log2 fold change [3] was inactive: -0.019.
EXOG (UniProt Q9Y2C4) was tested, and the log2 fold change [1] was inactive: 0.064, the log2 fold change [2] was inactive: -0.002 and the log2 fold change [3] was inactive: -0.067. For the same target, the log2 fold change [4] was inactive: -0.003.
In the case of F2R (UniProt P25116), the log2 fold change [1] is reported as inactive: -0.106, the log2 fold change [2] is reported as inactive: 0.113 and the log2 fold change [3] is reported as inactive: 0.068. The log2 fold change [4] was inactive: 0.009.
With EPS8L2 isoform 3 (UniProt Q9H6S3) the log2 fold change [3] was inactive: -0.188.
With FAM171A1 (UniProt Q5VUB5) the log2 fold change [2] was inactive: 0.151.
In the case of EPS15L1 (UniProt M0QY01), the log2 fold change [2] is reported as inactive: -0.243.
In the case of F13B (UniProt P05160), the log2 fold change [1] is reported as inactive: -0.018, the log2 fold change [2] is reported as inactive: -0.083 and the log2 fold change [3] is reported as inactive: 0.322. The log2 fold change [4] was inactive: 0.036.
FAM204A (UniProt Q9H8W3) was tested, and the log2 fold change [1] was inactive: 0.131, the log2 fold change [2] was inactive: 0.048 and the log2 fold change [3] was inactive: 0.003. The log2 fold change [4] was inactive: -0.031.
In the case of ESRRB isoform 1 (UniProt O95718), the log2 fold change [5] is reported as inactive: -0.102, the log2 fold change [1] is reported as inactive: 0.08 and the log2 fold change [2] is reported as inactive: 0.03. For the same target, the log2 fold change [4] was inactive: 0.145.
In the case of F10 (UniProt P00742), the log2 fold change [5] is reported as inactive: -0.014, the log2 fold change [2] is reported as inactive: -0.148 and the log2 fold change [3] is reported as inactive: -0.051.
ERI1 (UniProt Q8IV48) was tested, and the log2 fold change [1] was inactive: -0.288, the log2 fold change [2] was inactive: -0.047 and the log2 fold change [3] was inactive: 0.044. The log2 fold change [4] was inactive: -0.02.
With FAM135A (UniProt Q9P2D6) the log2 fold change [2] was inactive: 0.106.
In the case of FAM114A1 (UniProt Q8IWE2), the log2 fold change [3] is reported as inactive: -0.363.
With FAM117B (UniProt Q6P1L5) the log2 fold change [1] was inactive: 0.283, the log2 fold change [2] was inactive: 0.116 and the log2 fold change [3] was inactive: -0.097. The log2 fold change [4] was inactive: -0.024.
ESYT2 (UniProt H7BXI1) was tested, and the log2 fold change [5] was inactive: -0.022 and the log2 fold change [2] was inactive: -0.274.
With EWSR1 (UniProt H7BY36) the log2 fold change [5] was inactive: -0.207, the log2 fold change [1] was inactive: 0.043 and the log2 fold change [2] was inactive: 0.102. For the same target, the log2 fold change [4] was inactive: 0.151.
With FAM185A (UniProt Q8N0U4) the log2 fold change [5] was inactive: -0.056, the log2 fold change [2] was inactive: 0.103 and the log2 fold change [3] was inactive: -0.205.
EPS8L1 (UniProt Q8TE68) was tested, and the log2 fold change [5] was inactive: 0.212, the log2 fold change [1] was inactive: 0.035 and the log2 fold change [4] was inactive: 0.231.
EVI5 isoform 2 (UniProt O60447) was tested, and the log2 fold change [1] was inactive: -0.04, the log2 fold change [2] was inactive: -0.026 and the log2 fold change [3] was inactive: -0.216. The log2 fold change [4] was inactive: 0.171.
In the case of ERN1 (UniProt O75460), the log2 fold change [3] is reported as inactive: 0.071.
In the case of FAM122B isoform 2 (UniProt Q7Z309), the log2 fold change [1] is reported as inactive: 0.015 and the log2 fold change [4] is reported as inactive: -0.09.
In the case of FAM160B2 (UniProt Q86V87), the log2 fold change [1] is reported as inactive: -0.203 and the log2 fold change [4] is reported as inactive: 0.102.
In the case of ESPL1 (UniProt Q14674), the log2 fold change [5] is reported as inactive: -0.214, the log2 fold change [1] is reported as inactive: 0.101 and the log2 fold change [2] is reported as inactive: -0.055. For the same target, the log2 fold change [4] was inactive: 0.038.
With EXD2 (UniProt Q9NVH0) the log2 fold change [1] was inactive: -0.018 and the log2 fold change [4] was inactive: 0.027.
For ERMARD (UniProt Q5T6L9), the log2 fold change [1] was inactive: -0.345 and the log2 fold change [4] was inactive: -0.064.
With FAM107B isoform 2 (UniProt Q9H098) the log2 fold change [2] was inactive: -0.011.
For EVI2B isoform 2 (UniProt P34910), the log2 fold change [2] was inactive: 0.096.
